PubChem BioAssay AID743121, NCATS – 2013

Test: 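Knock-downs that sensitise breast cancer cells to camptothecin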 (primary screen)
System: MDA-MB-231 cells, a human breast cancer line
Reagent: single siRNA against human genes, 20 nM siRNA (0.8 pmol per well)
Duration: 120 h (drug added 48 h after transfection, read 72 h later)
Challenge: camptothecin 20 nM (about EC30) for 72 h; vehicle 0.1% DMSO in parallel plates
Measurement: 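CellTiter-Glo ATP signal, scaled to control siRNA as percent viability; sensitisation given as log2 of untreated divided by camptothecin-treated viability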
Scale: log2 vehicle/camptothecin viability: higher = stronger sensitisation to camptothecin
Rule for the call: 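Active genes have an RSA gene-level p-value below 0.001, computed from the ratios of their separate siRNAs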
Shown is a random part of about 26,000 deposited reagents. Over the whole deposit, 167 (0.63%) were called active. 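Calls are per gene from RSA p-values that are not deposited; an individual active-marked siRNA can sensitise only weakly.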 Unmarked entries are inactive. The numbers tell different reagents against one gene apart. Not all columns of the deposit are shown.

RNF24 #1 gave log2 vehicle/camptothecin viability -0.351. Depletion of RNF24 #2 came out at: log2 vehicle/camptothecin viability -0.175. Against RNF24 #3, the values are log2 vehicle/camptothecin viability -0.278. RNF24 #4 gave log2 vehicle/camptothecin viability -0.336. After knock-down of ARSD #1 the results were log2 vehicle/camptothecin viability -0.262. After knock-down of ARSD #2 the results were log2 vehicle/camptothecin viability -0.0878.

Knock-down of ARSD #3 resulted in: log2 vehicle/camptothecin viability -0.233. ARSD #4 scored log2 vehicle/camptothecin viability 0.42. Against MARCHF2 #1 the deposit lists log2 vehicle/camptothecin viability -0.74. For MARCHF2 #2, the values are log2 vehicle/camptothecin viability 0.00483. Depletion of MARCHF2 #3 gave: log2 vehicle/camptothecin viability 0.0922. For MARCHF2 #4, the entry reads log2 vehicle/camptothecin viability 0.988.

After knock-down of CX3CL1 #1 the results were log2 vehicle/camptothecin viability -0.369. CX3CL1 #2 showed log2 vehicle/camptothecin viability 0.0295. CX3CL1 #3 gave log2 vehicle/camptothecin viability 0.419. TSSK4 #1 showed log2 vehicle/camptothecin viability 0.263. Against TSSK4 #2, the values are log2 vehicle/camptothecin viability -0.358. For TSSK4 #3, the values are log2 vehicle/camptothecin viability -0.189.

TSSK4 #4 showed log2 vehicle/camptothecin viability 0.553. TSSK4 #5 gave log2 vehicle/camptothecin viability 0.125. After knock-down of TSSK4 #6, the screen gave log2 vehicle/camptothecin viability -0.315. After knock-down of TSSK4 #7, the screen gave log2 vehicle/camptothecin viability 0.161. After knock-down of STAB1 #1, the screen gave log2 vehicle/camptothecin viability -0.202. After knock-down of STAB1 #2 the results were log2 vehicle/camptothecin viability 0.289.

With knock-down of STAB1 #3, the screen gave log2 vehicle/camptothecin viability -0.491. For STAB1 #4, the values are log2 vehicle/camptothecin viability -0.386. For IL24 #1, the values are log2 vehicle/camptothecin viability 0.019. Against IL24 #2, the entry reads log2 vehicle/camptothecin viability 0.637. After knock-down of IL24 #3, the screen gave log2 vehicle/camptothecin viability -0.207. After knock-down of IL24 #4 the results were log2 vehicle/camptothecin viability -0.00552.

CAPN1 #1 scored log2 vehicle/camptothecin viability -0.0547. For CAPN1 #2 the deposit lists log2 vehicle/camptothecin viability -0.147. After knock-down of CAPN1 #3 the results were log2 vehicle/camptothecin viability -0.0993. Knock-down of CAPN1 #4 came out at: log2 vehicle/camptothecin viability -0.158. For MTHFR #1, the values are log2 vehicle/camptothecin viability -0.119. Knock-down of MTHFR #2 came out at: log2 vehicle/camptothecin viability -0.0744.

Knock-down of MTHFR #3 resulted in: log2 vehicle/camptothecin viability -0.0495.

Records above whose gene name begins with I or i (4):
IL24 #1 — log2 vehicle/camptothecin viability: 0.019
IL24 #2 — log2 vehicle/camptothecin viability: 0.637
IL24 #3 — log2 vehicle/camptothecin viability: -0.207
IL24 #4 — log2 vehicle/camptothecin viability: -0.00552
